Experimental data: paper PMC12101628
These are yes or no findings as the source states them, for the method shown. In cells and extracts the contact can be indirect. Some results given as binding are weak or reduced against the parent protein; the word gives no strength.

Amino acid sequences for entries named in this document (tags omitted). Residues count along the entry.
UniProt P34741, residues 19-201: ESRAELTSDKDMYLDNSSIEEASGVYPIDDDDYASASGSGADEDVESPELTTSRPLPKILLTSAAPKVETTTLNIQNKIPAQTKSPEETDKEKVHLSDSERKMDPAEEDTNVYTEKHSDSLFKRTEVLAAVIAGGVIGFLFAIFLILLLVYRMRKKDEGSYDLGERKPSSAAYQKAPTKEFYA

Molecular target: T1, heparanase 1 (HPSE) (human (endogenous in SV-HUC-1)) (UniProt Q9Y251)
T1 sequence: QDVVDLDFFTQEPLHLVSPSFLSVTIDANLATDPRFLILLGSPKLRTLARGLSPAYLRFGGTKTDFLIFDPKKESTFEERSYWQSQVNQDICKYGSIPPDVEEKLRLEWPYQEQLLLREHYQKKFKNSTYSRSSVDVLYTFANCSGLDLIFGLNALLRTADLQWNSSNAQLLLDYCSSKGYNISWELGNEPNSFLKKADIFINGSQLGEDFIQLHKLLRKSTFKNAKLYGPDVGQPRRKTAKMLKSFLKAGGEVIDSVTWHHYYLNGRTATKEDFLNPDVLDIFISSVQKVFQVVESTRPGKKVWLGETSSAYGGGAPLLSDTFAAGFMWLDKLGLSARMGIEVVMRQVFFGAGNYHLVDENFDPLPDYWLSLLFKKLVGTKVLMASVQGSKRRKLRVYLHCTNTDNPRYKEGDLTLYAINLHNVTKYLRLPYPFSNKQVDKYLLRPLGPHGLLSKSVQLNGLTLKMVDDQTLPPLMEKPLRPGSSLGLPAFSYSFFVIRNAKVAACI
Test: co-IP; endogenous proteins in SV-HUC-1 lysate (IP lysate with protease inhibitors); primary antibody on magnetic beads, lysate added at 4 C overnight, Western blot; which protein was precipitated is not told

Substance: syndecan-2 (SDC-2) (from UniProt P34741 19-201)
- binding: binds
